The structures appear in SMILES notation. This is one part of the list. The main result of the screen is listed elsewhere. These columns were measured beside it and carry no call. Most of these compounds were active or inconclusive in the main read-out, so they are no random draw. The note in brackets gives the kind of curve behind each potency; many fits are weak.

A short description of the test: IkB Signaling. Conditions: ABC-DLBCL IkBa-CBG/CBR dual luciferase ratio (green luciferase fused to IkBa over red control in OCI-Ly3 lymphoma cells), 4 h; measured here: control luc red channel unless noted. The method, boiled down:
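Curves were fitted separately to fusion (green), unfused (red) and ratio luminescence, then classed by r2, magnitude and activity. Cells: OCI-Ly3, 4 h compound plus doxycycline at 37C; 10 uM MG-132 defined full response.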
In general, AC50 refers to the concentration at which the activity in the assay is half-maximal. For the compound `Cc1c(C(=O)Nc2ccc(C(C)C)cc2)sc2nc[nH]c(=O)c12`, the AC50 is 3.16 µM [rising, partial curve].
For `Cc1ccc(CNC(=O)c2c(O)nc3c(C)cccn3c2=O)cc1`, the AC50 is 20 µM [falling, partial curve, poor fit].
As to `Cc1nc2ccc(S(=O)(=O)NC(CC(C)C)C(=O)N3CCN(c4ccc(F)cc4)CC3)cc2s1` (stereo unspecified), the AC50 is 20 µM [falling, partial curve].
To `COc1ccc(Br)cc1CNC(=O)c1nn(-c2ccc(C)cc2)c(=O)c2c1c1ccccc1n2C` belongs 20 µM [rising, partial curve]; to `Cc1ccccc1-c1noc(-c2cccnc2N(C)Cc2ccc(Cl)cc2)n1`, 10 µM [rising, partial curve]; to `Fc1ccc(Cc2cn3cc(-c4ccccc4)nc3s2)cc1`, 10 µM [falling, partial curve].
The value for `CCOC(=O)c1ccc(NC(=O)c2csnn2)cc1` was 7.94 µM [falling, full curve, poor fit].
To `CCOC(=O)c1cccc(NC(=O)CCC(=O)N2CC(C)Oc3ccc(C)cc32)c1` (stereo unspecified) belongs 20 µM [falling, single point].
Consider `COc1ccc(-c2n[nH]c3c2C(c2ccc(O)cc2)N(c2ccc(Br)cc2)C3=O)cc1` (stereo unspecified), for which the AC50 was 15.8 µM [falling, partial curve].
Turning to `c1ccc(OCCCc2nc(-c3ccncc3)no2)cc1`, the AC50 is 31.6 µM [falling, single point].
Consider `O=C(NC1CCCCCC1)c1ccc2c(c1)sc1nc(-c3ccccc3)cn12`, for which the AC50 is 39.8 µM [falling, single point].
To `CC1CN(c2nc(-c3ccccc3)nc3ccccc23)CC(C)O1` (stereo unspecified) belongs 20 µM [falling, partial curve].
To `C=CCn1c(SCCCc2ccccc2)nc2c1c(=O)[nH]c(=O)n2C` belongs 25.1 µM [falling, partial curve]; to `Clc1ccc2nc(SCc3nnc(-c4ccccc4)o3)[nH]c2c1`, 31.6 µM [falling, single point].
The value for `O=C(C1CCC(Cn2c(=O)c3sccc3n(Cc3cccc(F)c3)c2=O)CC1)N1CCCCC1` (stereo unspecified) was 3.16 µM [rising, partial curve]; that for `COc1ccc(CCNC(=O)c2ccc(CS(=O)(=O)Cc3cccc(C)c3)o2)cc1OC` was 31.6 µM [falling, partial curve].
`COC(=O)c1ccc(NC(=O)c2sc3nc(-c4ccccc4)cn3c2C)cc1`: the AC50 was 2 µM [falling, full curve].
To `CNC(=O)c1cc2c(=O)n3cc(C)ccc3nc2n(Cc2ccco2)c1=N` belongs 12.6 µM [falling, partial curve].
The value for `CC(C)CCNC(=O)C1CCN(C(=O)N2CCOc3ccc(Cl)cc32)CC1` was 6.31 µM [falling, partial curve]; that for `COc1ccc(C(=O)Nc2ccc(-c3cc4ccccc4oc3=O)c(C)c2)cc1OC` was 10 µM [falling, partial curve].
The value for `COc1ccc(-c2noc(CSc3nnc(-c4ccncc4)n3-c3ccc(C)cc3)n2)cc1` was 25.1 µM [falling, single point].
Turning to `COc1cccc(CNC(=O)C2CCC(CNS(=O)(=O)c3ccc(Br)s3)CC2)c1` (stereo unspecified), the AC50 was 3.98 µM [falling, partial curve].
The value for `CCOC(=O)C(Cc1c[nH]c2ccccc12)NC(=O)COc1ccc(Cl)c(C)c1` (stereo unspecified) was 31.6 µM [falling, partial curve]; that for `CCOc1nc(NC(=O)NS(=O)(=O)Oc2ccccc2)nc(-c2ccccc2)n1` was 20 µM [rising, partial curve].
To `COc1ccc(C(c2c(O)ccc3ccccc23)N2CCOCC2)c(OC)c1` (stereo unspecified) belongs 7.94 µM [falling, full curve].
The value for `CC(Oc1ccc(Cl)cc1Cl)c1nc(-c2ccc(NC(=O)c3cccnc3)cc2)no1` (stereo unspecified) was 3.16 µM [falling, full curve, poor fit].
Consider `CCOc1ccc(NC(=O)CSC2=Nc3ccccc3C3=NC(CC(=O)NCc4ccco4)C(=O)N23)cc1` (stereo unspecified), for which the AC50 was 5.01 µM [falling, partial curve].
For the compound `Cc1cc2ccccc2n1CCNC(=O)c1cccc(Cl)c1`, the AC50 was 31.6 µM [falling, single point].
Consider `Cn1c(CNc2cccc(Cl)c2)nnc1SCC(=O)OC1CCCCC1`, for which the AC50 is 25.1 µM [falling, single point].
The value for `CC(C)c1ccc(NC(=O)c2cc(S(=O)(=O)NCc3ccccc3Cl)ccc2F)cc1` was 15.8 µM [falling, partial curve].
On to `Cc1ccc(-c2cc(C(=O)N3CCN(C(=O)c4ccco4)CC3)no2)cc1`, for which the AC50 was 20 µM [falling, partial curve].
Turning to `N#Cc1c[nH]n2c(NC3CCCC3)c(-c3cccc(Cl)c3)nc12`, the AC50 was 25.1 µM [falling, single point].
The value for `Cc1ccc(N(CC(=O)Nc2ccc(C)c(F)c2)S(=O)(=O)c2c(C)n[nH]c2C)cc1` was 20 µM [falling, partial curve]; that for `CCOc1cc(C(=O)N2CCc3c([nH]c4ccccc34)C2c2ccccc2)cc(OCC)c1OCC` (stereo unspecified) was 0.251 µM [falling, full curve, poor fit]; that for `COc1ccc(C)cc1NC(=O)Cn1c(=O)ccc2cc(S(=O)(=O)N3CCCC3)ccc21` was 0.316 µM [falling, full curve].
To `CN(C)c1nc(Oc2ccc(C(=O)OCC(=O)Nc3ccccc3)cc2)nc(N(C)C)n1` belongs 7.94 µM [falling, partial curve]; to `CCCCOc1ccccc1NC(=O)CC1SC(=NCC)N(CC)C1=O` (stereo unspecified), 12.6 µM [falling, partial curve].
To `Cc1ccc(S(=O)(=O)c2nc(-c3ccco3)oc2SCC(C)C)cc1` belongs 10 µM [falling, partial curve, poor fit]; to `O=C(Cc1ccc(NC(=O)N2CCCCc3ccccc32)cc1)NCc1ccccc1`, 10 µM [falling, partial curve]; to `CCCCn1cc(S(=O)(=O)c2ccc(F)cc2)c(=O)c2ccccc21`, 15.8 µM [falling, partial curve].
For `COc1cccc(NC(=O)Cc2cn(C)c3ccccc23)c1`, the AC50 was 0.316 µM [falling, partial curve].

(Values after PubChem BioAssay AID445 (National Center for Advancing Translational Sciences (NCATS), 2006).)
